# Measured values from the supplement of paper PMC12067093, “Discovery and optimisation of a covalent ligand for TRIM25 and its application to targeted protein ubiquitination” (Chemical Science, 2025).
# By UniProt entry, the sequences of proteins in these tests, tags left out. Where a name states a change or a piece, a line headed by the entry shows the natural chain unless it says otherwise.
# UniProt O95243: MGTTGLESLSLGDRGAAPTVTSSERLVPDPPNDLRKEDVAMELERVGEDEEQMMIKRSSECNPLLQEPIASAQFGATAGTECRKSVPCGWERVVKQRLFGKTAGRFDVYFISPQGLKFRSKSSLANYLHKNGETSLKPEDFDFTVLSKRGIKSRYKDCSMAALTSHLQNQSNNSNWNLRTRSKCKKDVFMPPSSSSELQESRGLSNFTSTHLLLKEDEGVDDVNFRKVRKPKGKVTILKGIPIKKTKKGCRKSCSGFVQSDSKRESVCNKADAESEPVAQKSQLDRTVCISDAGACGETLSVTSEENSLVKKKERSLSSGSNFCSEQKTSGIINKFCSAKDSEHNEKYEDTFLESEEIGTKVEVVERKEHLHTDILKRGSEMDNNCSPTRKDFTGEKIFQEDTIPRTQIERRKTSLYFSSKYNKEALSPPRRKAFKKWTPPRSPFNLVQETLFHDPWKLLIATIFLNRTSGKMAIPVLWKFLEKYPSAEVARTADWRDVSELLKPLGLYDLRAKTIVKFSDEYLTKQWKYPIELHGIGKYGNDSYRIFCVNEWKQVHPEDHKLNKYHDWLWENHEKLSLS
# UniProt Q9H0U3: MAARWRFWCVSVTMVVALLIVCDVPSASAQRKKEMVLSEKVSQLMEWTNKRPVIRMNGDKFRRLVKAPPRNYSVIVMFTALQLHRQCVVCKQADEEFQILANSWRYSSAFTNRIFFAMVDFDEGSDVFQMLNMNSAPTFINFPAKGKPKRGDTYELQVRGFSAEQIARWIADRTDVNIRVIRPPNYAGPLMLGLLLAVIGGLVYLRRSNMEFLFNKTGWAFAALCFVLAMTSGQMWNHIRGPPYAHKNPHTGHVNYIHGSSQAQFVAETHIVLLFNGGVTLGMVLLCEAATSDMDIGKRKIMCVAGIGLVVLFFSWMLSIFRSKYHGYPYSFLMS
# UniProt Q96RQ3: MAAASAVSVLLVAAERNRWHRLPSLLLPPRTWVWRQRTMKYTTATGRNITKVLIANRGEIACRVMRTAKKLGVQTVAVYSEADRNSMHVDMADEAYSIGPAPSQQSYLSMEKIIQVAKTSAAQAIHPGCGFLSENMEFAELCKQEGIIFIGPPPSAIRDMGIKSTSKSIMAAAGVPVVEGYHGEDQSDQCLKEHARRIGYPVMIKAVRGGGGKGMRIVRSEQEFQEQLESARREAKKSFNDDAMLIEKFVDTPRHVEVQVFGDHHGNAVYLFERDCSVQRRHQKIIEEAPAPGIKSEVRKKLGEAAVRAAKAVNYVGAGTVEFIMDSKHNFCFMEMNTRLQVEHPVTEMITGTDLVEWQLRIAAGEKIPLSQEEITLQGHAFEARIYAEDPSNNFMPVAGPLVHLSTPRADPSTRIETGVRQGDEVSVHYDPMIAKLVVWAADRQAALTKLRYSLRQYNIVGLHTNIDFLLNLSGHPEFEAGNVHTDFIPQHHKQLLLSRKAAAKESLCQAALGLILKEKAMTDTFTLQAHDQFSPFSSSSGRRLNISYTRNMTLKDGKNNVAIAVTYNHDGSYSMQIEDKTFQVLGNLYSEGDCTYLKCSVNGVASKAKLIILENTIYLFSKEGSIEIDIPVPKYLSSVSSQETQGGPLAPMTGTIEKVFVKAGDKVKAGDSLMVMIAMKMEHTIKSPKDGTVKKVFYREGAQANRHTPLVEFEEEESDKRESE
# UniProt O75608: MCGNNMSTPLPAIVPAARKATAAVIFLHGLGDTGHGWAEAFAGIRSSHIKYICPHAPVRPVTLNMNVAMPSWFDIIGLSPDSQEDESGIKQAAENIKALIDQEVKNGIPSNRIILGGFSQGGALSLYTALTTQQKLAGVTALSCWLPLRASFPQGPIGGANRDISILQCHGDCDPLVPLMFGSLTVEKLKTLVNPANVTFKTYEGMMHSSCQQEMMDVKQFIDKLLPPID
# UniProt Q05BQ5, whole entry, looked up: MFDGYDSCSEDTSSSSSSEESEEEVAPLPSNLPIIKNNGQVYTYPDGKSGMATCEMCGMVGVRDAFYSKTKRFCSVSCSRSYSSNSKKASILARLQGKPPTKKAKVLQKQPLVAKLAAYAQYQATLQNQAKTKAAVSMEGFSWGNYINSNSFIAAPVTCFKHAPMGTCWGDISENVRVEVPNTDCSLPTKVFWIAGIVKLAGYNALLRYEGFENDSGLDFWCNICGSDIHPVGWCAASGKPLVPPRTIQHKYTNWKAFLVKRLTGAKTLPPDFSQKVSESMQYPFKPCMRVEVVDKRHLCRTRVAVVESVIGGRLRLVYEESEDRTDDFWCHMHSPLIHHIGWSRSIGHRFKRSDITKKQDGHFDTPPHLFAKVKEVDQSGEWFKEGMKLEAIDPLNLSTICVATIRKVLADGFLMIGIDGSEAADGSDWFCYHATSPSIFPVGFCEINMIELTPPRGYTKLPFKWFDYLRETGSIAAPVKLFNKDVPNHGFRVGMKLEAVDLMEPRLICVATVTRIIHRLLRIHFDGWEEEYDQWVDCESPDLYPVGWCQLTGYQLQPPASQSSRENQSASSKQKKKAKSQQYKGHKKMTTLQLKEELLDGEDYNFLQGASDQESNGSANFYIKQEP
# UniProt O95372: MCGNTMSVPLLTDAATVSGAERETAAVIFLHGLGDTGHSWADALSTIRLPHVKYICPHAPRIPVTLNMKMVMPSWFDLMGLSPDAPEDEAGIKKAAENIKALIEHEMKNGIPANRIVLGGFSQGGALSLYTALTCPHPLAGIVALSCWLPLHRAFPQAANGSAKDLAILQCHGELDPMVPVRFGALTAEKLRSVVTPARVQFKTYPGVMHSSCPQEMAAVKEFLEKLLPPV
# UniProt Q8WWC4: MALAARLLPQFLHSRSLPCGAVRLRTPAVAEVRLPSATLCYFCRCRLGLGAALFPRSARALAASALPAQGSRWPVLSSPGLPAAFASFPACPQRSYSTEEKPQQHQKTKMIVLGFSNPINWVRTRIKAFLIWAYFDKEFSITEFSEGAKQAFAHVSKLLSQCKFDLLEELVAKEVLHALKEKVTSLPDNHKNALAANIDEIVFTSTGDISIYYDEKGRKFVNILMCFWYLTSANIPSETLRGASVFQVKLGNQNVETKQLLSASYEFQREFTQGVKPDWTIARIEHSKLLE
# UniProt Q9NZL9, whole entry, looked up: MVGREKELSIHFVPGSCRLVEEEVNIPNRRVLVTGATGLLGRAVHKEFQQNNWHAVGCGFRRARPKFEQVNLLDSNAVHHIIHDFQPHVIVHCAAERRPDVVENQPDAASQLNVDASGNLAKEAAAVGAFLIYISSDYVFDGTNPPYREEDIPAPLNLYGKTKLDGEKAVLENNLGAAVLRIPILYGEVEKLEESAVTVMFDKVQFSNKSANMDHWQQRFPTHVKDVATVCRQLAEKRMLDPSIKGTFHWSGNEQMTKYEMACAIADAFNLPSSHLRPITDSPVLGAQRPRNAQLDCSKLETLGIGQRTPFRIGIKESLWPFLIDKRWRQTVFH
# UniProt Q5U5X0: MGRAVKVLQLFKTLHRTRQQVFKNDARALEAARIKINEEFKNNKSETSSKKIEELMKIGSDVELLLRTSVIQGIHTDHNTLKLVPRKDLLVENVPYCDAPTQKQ
# UniProt Q8IV50: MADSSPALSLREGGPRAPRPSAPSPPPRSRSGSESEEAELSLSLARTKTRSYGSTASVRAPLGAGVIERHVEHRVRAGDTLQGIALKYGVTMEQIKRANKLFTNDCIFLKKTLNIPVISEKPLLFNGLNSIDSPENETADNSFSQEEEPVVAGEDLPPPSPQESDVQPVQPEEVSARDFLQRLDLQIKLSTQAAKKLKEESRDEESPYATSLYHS
# UniProt Q9P2G4: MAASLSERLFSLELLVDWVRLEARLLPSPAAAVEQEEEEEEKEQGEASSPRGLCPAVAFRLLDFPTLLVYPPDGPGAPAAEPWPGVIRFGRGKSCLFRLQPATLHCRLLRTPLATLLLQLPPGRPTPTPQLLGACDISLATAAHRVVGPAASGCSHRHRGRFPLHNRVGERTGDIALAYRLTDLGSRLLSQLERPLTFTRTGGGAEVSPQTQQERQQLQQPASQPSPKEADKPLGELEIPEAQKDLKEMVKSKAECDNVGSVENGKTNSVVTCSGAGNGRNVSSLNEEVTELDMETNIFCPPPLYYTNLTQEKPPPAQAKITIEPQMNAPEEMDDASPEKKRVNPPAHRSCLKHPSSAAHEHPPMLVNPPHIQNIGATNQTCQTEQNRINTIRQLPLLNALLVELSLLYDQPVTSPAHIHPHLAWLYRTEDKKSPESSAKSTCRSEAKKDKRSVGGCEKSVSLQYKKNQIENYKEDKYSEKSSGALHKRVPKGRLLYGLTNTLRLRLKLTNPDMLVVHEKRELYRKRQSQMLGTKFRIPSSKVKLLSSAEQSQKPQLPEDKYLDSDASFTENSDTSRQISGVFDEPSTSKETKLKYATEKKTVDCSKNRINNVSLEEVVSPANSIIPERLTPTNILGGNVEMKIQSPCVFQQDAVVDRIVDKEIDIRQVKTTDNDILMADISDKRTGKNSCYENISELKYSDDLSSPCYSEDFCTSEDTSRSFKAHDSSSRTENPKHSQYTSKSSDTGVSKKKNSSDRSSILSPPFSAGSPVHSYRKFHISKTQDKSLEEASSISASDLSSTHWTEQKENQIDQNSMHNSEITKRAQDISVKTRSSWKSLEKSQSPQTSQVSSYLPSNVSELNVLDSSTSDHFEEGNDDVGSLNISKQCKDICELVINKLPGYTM
# UniProt Q3KQU3: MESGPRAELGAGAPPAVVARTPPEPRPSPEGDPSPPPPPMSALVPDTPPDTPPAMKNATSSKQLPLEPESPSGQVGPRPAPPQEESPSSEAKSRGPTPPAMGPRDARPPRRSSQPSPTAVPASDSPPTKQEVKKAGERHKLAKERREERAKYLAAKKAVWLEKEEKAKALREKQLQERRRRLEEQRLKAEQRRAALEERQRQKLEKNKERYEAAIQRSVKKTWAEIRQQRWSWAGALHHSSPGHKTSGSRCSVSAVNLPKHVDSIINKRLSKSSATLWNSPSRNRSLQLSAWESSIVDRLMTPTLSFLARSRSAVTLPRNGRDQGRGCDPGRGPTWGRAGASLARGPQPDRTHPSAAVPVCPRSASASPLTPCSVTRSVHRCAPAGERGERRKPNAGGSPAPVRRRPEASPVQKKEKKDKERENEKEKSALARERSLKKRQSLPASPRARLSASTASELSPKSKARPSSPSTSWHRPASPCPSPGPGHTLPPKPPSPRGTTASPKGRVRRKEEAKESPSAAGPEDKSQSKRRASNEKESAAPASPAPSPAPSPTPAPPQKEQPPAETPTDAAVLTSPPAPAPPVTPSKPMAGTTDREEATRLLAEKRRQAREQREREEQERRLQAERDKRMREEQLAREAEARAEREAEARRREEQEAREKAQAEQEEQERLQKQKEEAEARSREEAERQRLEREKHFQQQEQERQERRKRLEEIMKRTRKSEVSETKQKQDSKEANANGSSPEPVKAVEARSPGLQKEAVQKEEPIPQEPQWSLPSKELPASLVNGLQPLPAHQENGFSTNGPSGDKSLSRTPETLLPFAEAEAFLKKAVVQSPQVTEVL
# UniProt Q12851: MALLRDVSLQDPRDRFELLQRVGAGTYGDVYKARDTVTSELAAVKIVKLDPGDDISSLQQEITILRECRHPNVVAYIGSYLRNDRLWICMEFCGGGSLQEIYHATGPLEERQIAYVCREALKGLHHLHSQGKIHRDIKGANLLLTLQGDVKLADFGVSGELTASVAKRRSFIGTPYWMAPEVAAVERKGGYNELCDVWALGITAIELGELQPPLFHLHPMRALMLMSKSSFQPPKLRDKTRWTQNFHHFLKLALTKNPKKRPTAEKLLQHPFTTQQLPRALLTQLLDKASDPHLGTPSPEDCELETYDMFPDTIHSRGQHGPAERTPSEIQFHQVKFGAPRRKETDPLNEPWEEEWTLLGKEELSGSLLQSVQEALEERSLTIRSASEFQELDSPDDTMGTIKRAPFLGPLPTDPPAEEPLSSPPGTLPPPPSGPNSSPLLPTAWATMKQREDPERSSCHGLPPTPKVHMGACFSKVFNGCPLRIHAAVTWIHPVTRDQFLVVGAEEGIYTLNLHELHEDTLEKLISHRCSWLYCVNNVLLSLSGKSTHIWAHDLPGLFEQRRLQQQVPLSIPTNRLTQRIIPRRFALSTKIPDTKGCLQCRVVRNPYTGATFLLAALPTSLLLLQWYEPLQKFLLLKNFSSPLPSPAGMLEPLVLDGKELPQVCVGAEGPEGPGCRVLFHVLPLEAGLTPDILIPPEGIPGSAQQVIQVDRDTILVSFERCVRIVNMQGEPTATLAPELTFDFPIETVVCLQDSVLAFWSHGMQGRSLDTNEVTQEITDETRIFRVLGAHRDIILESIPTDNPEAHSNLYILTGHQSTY
# UniProt Q15691: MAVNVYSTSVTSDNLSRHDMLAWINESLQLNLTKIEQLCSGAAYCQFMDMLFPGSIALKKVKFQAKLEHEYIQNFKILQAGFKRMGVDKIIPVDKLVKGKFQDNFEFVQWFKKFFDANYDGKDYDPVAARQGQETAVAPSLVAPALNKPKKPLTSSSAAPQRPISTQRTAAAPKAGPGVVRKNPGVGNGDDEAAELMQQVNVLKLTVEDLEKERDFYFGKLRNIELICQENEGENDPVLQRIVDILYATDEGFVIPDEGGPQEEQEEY
# The list shows a part of the results.
# Compound: Cc1cc(ccc1-c1ccccc1)C(=O)N1CCCN(CC1)C(=O)CCl [compound 10]
# Assay: probe-labelled cysteine peptide fold change vs DMSO (competition) (log2 fold change); higher = less target engagement (more negative = stronger competition)
# Conditions: 10 µM; THP-1; incubation time: 4 h
# 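Note: competitive profiling in live THP-1 cells: cysteine peptides tagged with an iodoacetamide desthiobiotin (IA-DTB) probe, intensity after compound treatment relative to DMSO-treated cells.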
row,Target,probe-labelled cysteine peptide fold change
1,MAD1L1_Q9Y6D9_662_LTSLYAEHPGDCLIFK (UniProt Q9Y6D9),0.0134
2,MBD4_O95243_324_SLSSGSNFCSEQK (UniProt O95243),0.259
3,MAP2K3_P46734_29_ISCMSKPPAPNPTPPR (UniProt P46734),-0.299
4,M6PR_P20645_132_GGDEYDNHCGK (UniProt P20645),-0.358
5,LY75_O60449_110_CEHHSLYGAAR (UniProt O60449),0.109
6,MAP1S_Q66K74_975_ALCYVISGQDQR (UniProt Q66K74),-0.121
7,MACF1_Q9UPN3_5309_DCDVQGLEHDMEEINAR (UniProt Q9UPN3),0.0885
8,MAGT1_Q9H0U3_87_QCVVCK (UniProt Q9H0U3),-0.137
9,MAZ_P56270_339_SHDGAVHKPYNCSHCGK (UniProt P56270),0.0248
10,LY75_O60449_477_VQSCEEK (UniProt O60449),-0.205
11,MCCC1_Q96RQ3_509_ESLCQAALGLILK (UniProt Q96RQ3),0.373
12,MCCC1_Q96RQ3_190_SIMAAAGVPVVEGYHGEDQSDQCLK (UniProt Q96RQ3),-0.0351
13,LYPLA1_O75608_211_TYEGMMHSSCQQEMMDVK (UniProt O75608),0.203
14,MBNL1_Q9NR56_27_GTCSRPDTECK (UniProt Q9NR56),0.0284
15,MBTD1_Q05BQ5_78_FCSVSCSR (UniProt Q05BQ5),-0.26
16,LYPLA2_O95372_56_YICPHAPR (UniProt O95372),0.146
17,MAIP1_Q8WWC4_162_LLSQCK (UniProt Q8WWC4),-0.148
18,MAT2B_Q9NZL9_17_ELSIHFVPGSCR (UniProt Q9NZL9),-0.0851

row,Target,probe-labelled cysteine peptide fold change
1,LY75_O60449_1422_VTWYEALNMCSQSGGHLASVHNQNGQLFLEDIVKR (UniProt O60449),0.482
2,MADD_Q8WXG6_1489_LINMTYCPK (UniProt Q8WXG6),-0.139
3,LYRM7_Q5U5X0_97_KDLLVENVPYCDAPTQK (UniProt Q5U5X0),-0.324
4,MAT2A_P31153_34_ICDQISDAVLDAHLQQDPDAK (UniProt P31153),-0.355
5,LYSMD2_Q8IV50_106_LFTNDCIFLK (UniProt Q8IV50),-0.192
6,MAP1S_Q66K74_440_VLFPGCTPPACLLDGLVR (UniProt Q66K74),-0.12
7,MAP10_Q9P2G4_605_TVDCSK (UniProt Q9P2G4),-0.237
8,MAP7D1_Q3KQU3_373_SASASPLTPCSVTR (UniProt Q3KQU3),-0.336
9,MAP10_Q9P2G4_256_AECDNVGSVENGK (UniProt Q9P2G4),-0.268
10,LYST_Q99698_2168_GKEDAFISSCESAK (UniProt Q99698),-0.516
11,MAP4K2_Q12851_473_VHMGACFSK (UniProt Q12851),-0.00961
12,MAP2K6_P52564_294_FSAEFVDFTSQCLK (UniProt P52564),-0.0327
13,LYST_Q99698_3649_LCYVQSLAGHK (UniProt Q99698),-0.0877
14,MAP3K2_Q9Y2U5_405_EVNALECEIQLLK (UniProt Q9Y2U5),-0.052
15,LYPLAL1_Q5VWZ2_174_SNGVLPELFQCHGTADELVLHSWAEETNSMLK (UniProt Q5VWZ2),0.165
16,MAP3K1_Q13233_667_AMLVYTPCHSLAER (UniProt Q13233),0.0391
17,MAPRE1_Q15691_228_NIELICQENEGENDPVLQR (UniProt Q15691),0.196

# Same assay, conditions: 50 µM; THP-1; incubation time: 4 h
row,Target,probe-labelled cysteine peptide fold change
1,MAD1L1_Q9Y6D9_662_LTSLYAEHPGDCLIFK (UniProt Q9Y6D9),0.0859
2,MBD4_O95243_324_SLSSGSNFCSEQK (UniProt O95243),-0.0568
3,MAP2K3_P46734_29_ISCMSKPPAPNPTPPR (UniProt P46734),-0.621
4,M6PR_P20645_132_GGDEYDNHCGK (UniProt P20645),-0.136
5,LY75_O60449_110_CEHHSLYGAAR (UniProt O60449),0.155
6,MAP1S_Q66K74_975_ALCYVISGQDQR (UniProt Q66K74),0.0479
7,MACF1_Q9UPN3_5309_DCDVQGLEHDMEEINAR (UniProt Q9UPN3),0.126
8,MAGT1_Q9H0U3_87_QCVVCK (UniProt Q9H0U3),0.464
9,MAZ_P56270_339_SHDGAVHKPYNCSHCGK (UniProt P56270),-0.168
10,LY75_O60449_477_VQSCEEK (UniProt O60449),-0.0554
11,MCCC1_Q96RQ3_509_ESLCQAALGLILK (UniProt Q96RQ3),0.295
12,MCCC1_Q96RQ3_190_SIMAAAGVPVVEGYHGEDQSDQCLK (UniProt Q96RQ3),0.0619
13,LYPLA1_O75608_211_TYEGMMHSSCQQEMMDVK (UniProt O75608),-0.237
14,MBNL1_Q9NR56_27_GTCSRPDTECK (UniProt Q9NR56),-0.0688
15,MBTD1_Q05BQ5_78_FCSVSCSR (UniProt Q05BQ5),-0.423
16,LYPLA2_O95372_56_YICPHAPR (UniProt O95372),-0.11
17,MAIP1_Q8WWC4_162_LLSQCK (UniProt Q8WWC4),0.218
18,MAT2B_Q9NZL9_17_ELSIHFVPGSCR (UniProt Q9NZL9),-0.177

row,Target,probe-labelled cysteine peptide fold change
1,LY75_O60449_1422_VTWYEALNMCSQSGGHLASVHNQNGQLFLEDIVKR (UniProt O60449),0.37
2,MADD_Q8WXG6_1489_LINMTYCPK (UniProt Q8WXG6),-1.56
3,LYRM7_Q5U5X0_97_KDLLVENVPYCDAPTQK (UniProt Q5U5X0),-0.539
4,MAT2A_P31153_34_ICDQISDAVLDAHLQQDPDAK (UniProt P31153),0.000577
5,LYSMD2_Q8IV50_106_LFTNDCIFLK (UniProt Q8IV50),-1.77
6,MAP1S_Q66K74_440_VLFPGCTPPACLLDGLVR (UniProt Q66K74),0.127
7,MAP10_Q9P2G4_605_TVDCSK (UniProt Q9P2G4),-0.237
8,MAP7D1_Q3KQU3_373_SASASPLTPCSVTR (UniProt Q3KQU3),-0.225
9,MAP10_Q9P2G4_256_AECDNVGSVENGK (UniProt Q9P2G4),0.325
10,LYST_Q99698_2168_GKEDAFISSCESAK (UniProt Q99698),-0.608
11,MAP4K2_Q12851_473_VHMGACFSK (UniProt Q12851),-0.0832
12,MAP2K6_P52564_294_FSAEFVDFTSQCLK (UniProt P52564),0.2
13,LYST_Q99698_3649_LCYVQSLAGHK (UniProt Q99698),-0.182
14,MAP3K2_Q9Y2U5_405_EVNALECEIQLLK (UniProt Q9Y2U5),-0.189
15,LYPLAL1_Q5VWZ2_174_SNGVLPELFQCHGTADELVLHSWAEETNSMLK (UniProt Q5VWZ2),-0.0729
16,MAP3K1_Q13233_667_AMLVYTPCHSLAER (UniProt Q13233),0.498
17,MAPRE1_Q15691_228_NIELICQENEGENDPVLQR (UniProt Q15691),0.425
